Test results published in PubChem BioAssay AID256 (DTP/NCI, 2004).
The list does not hold the whole screen: it is rich in T/C values a quarter to a half above the control, in often repeated tests (any T/C) and in doses without a T/C. Other doses and runs of a compound stand elsewhere. T/C is the treated group as % of the vehicle group. Some doses have a count of surviving animals in place of a T/C: the source files T/C as zero there, which appears to mark a toxic dose or a test without result, not a measured value. Some survivor counts are full or nearly so, which does not show that the dose was tolerated: the source hardly ever lists a survival T/C far under the control, and the zero likely stands for such cases as well. Counts of survivors are from the toxicity check (mostly the fifth day) where no day follows; animals may have died later. Schedules are NCI's codes, read here as Q, the interval in days (D) or hours (H), X, the number of doses. Some entries hold several experiments; their values stand side by side, smallest first. For survival time, the PubChem record calls one and a half times the control and up active, and a quarter to a half above the control has no call in these data; cut-offs in other NCI protocols can differ. Some T/C values are followed by the survivors on the day toxicity was checked, most often the fifth; without a count, all were alive then.

System: CD2F1 mice, L1210 leukemia ip, survival T/C
Assay: NCI In Vivo Anticancer Drug Screen. Data for tumor model L1210 Leukemia (intraperitoneal) in CD2F1 (CDF1) mice
Conditions: T/C endpoint: mean survival time, higher T/C = longer survival
Summary of the method: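 Implant tumor; dose compound or vehicle; measure endpoint in both groups; report treated divided by control.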

[1] = dose: 100.0 mg/kg/injection, schedule: Q04DX003 (ip), vehicle: saline with Tween-80
[2] = dose: 400.0 mg/kg/injection, schedule: Q04DX003 (ip), vehicle: saline with Tween-80
[3] = dose: 100.0 mg/kg/injection, schedule: Q01DX009 (ip), vehicle: saline with Tween-80
[4] = dose: 300.0 mg/kg/injection, schedule: Q01DX001 (ip), vehicle: saline
[5] = dose: 200.0 mg/kg/injection, schedule: Q01DX001 (ip), vehicle: saline with Tween-80
[6] = dose: 400.0 mg/kg/injection, schedule: Q04DX002 (ip), vehicle: saline with Tween-80
[7] = dose: 200.0 mg/kg/injection, schedule: Q01DX009 (ip), vehicle: saline with Tween-80
[8] = dose: 200.0 mg/kg/injection, schedule: Q04DX003 (ip), vehicle: saline with Tween-80
[9] = dose: 400.0 mg/kg/injection, schedule: Q01DX001 (ip), vehicle: saline with Tween-80

Nc1ncnc(N)c1NC(=O)c1ccc(OCCOc2ccccc2)c(Cl)c1
survivor count [1]: 6 of 6 | survivor count [2]: 3 of 6

CC1=C(C)C(=O)O[C@@H]([C@](C)(O)[C@]2(O)CC[C@@]3(O)[C@@H]4C[C@H]5O[C@]56[C@@H](O)C=CC(=O)[C@]6(C)[C@H]4CC[C@]23C)C1
survivor count (dose: 64.0 mg/kg/injection, schedule: Q01DX009 (ip), vehicle: suspension in saline): 0 of 6

O=C(NC1CCCCC1)OCc1c(COC(=O)NC2CCCCC2)c(-c2ccc(Cl)c(Cl)c2)n2c1CCC2
T/C (dose: 25.0 mg/kg/injection, schedule: Q01DX009 (ip), vehicle: saline with Tween-80): 130 % of control | T/C (dose: 50.0 mg/kg/injection, schedule: Q01DX009 (ip), vehicle: saline with Tween-80): 133 and 137 % of control | T/C [3]: 142 % of control

CCN(CC)CC[C-]=O.[NH-]CC[NH-].[Pd]
survivor count (dose: 100.0 mg/kg/injection, schedule: Q04DX003 (ip), vehicle: water): 0 of 6 | survivor count (dose: 200.0 mg/kg/injection, schedule: Q04DX003 (ip), vehicle: water): 0 of 6

CC[N+]1(Cc2ccccc2)CC2(CCCCC2)ON2C1CC(C)C2(C)C (centres undefined)
survivor count [3]: 2 of 6

CN1Cc2c([nH]c3ccccc23)C(O)C1 (centres undefined)
survivor count [4]: 3 of 6

CCC1CCC2C(CCC3(N(C)C)CCC(OC)C(OC)C23)C1 (centres undefined)
survivor count (dose: 50.0 mg/kg/injection, schedule: Q01DX001 (ip), vehicle: saline with Tween-80): 1 of 6 | survivor count (dose: 100.0 mg/kg/injection, schedule: Q01DX001 (ip), vehicle: saline with Tween-80): 0 of 6 | survivor count [5]: 0 of 6

O=S(=O)(F)c1ccc(S)c(Cl)c1Cl
survivor count (dose: 200.0 mg/kg/injection, schedule: Q04DX002 (ip), vehicle: saline with Tween-80): 0 of 3 | survivor count [6]: 1 of 3

Cc1cc(N2C(=O)CCSC2=S)ccc1Cl
T/C (dose: 50.0 mg/kg/injection, schedule: Q01DX009 (ip), vehicle: Klucel (hydroxypropylcellulose) (HPC)): 125 % of control | T/C (dose: 200.0 mg/kg/injection, schedule: Q01DX009 (ip), vehicle: Klucel (hydroxypropylcellulose) (HPC)): 129 % of control | survivor count (dose: 400.0 mg/kg/injection, schedule: Q01DX009 (ip), vehicle: Klucel (hydroxypropylcellulose) (HPC)): 2 of 6 and 6 of 6

O[Si](O)([O][Sn]([c]1ccccc1)([c]1ccccc1)[c]1ccccc1)[O][Sn]([c]1ccccc1)([c]1ccccc1)[c]1ccccc1
survivor count (dose: 25.0 mg/kg/injection, schedule: Q01DX009 (ip), vehicle: saline): 0 of 3

CCCCCCCCCCCCCCCC(=O)NCCN(CC)CC
survivor count (dose: 75.0 mg/kg/injection, schedule: Q01DX001 (ip), vehicle: saline): 6 of 6 | survivor count [3]: 6 of 6 | survivor count (dose: 150.0 mg/kg/injection, schedule: Q04DX003 (ip), vehicle: saline with Tween-80): 2 of 6 | survivor count [7]: 0 of 6 | survivor count [4]: 2 of 6 | survivor count (dose: 300.0 mg/kg/injection, schedule: Q04DX003 (ip), vehicle: saline with Tween-80): 1 of 6

C=C1C(=O)OCC1C(=O)O (centres undefined)
survivor count (dose: 64.0 mg/kg/injection, schedule: Q01DX009 (ip), vehicle: saline): 3 of 6 | survivor count (dose: 128.0 mg/kg/injection, schedule: Q01DX009 (ip), vehicle: saline): 0 of 10 and 0 of 6

CC1OC1C(=O)C1(O)C(C)C(O)C23OC2(C(O)c2c(O)cccc2C3=O)C1O (centres undefined)
survivor count (dose: 16.0 mg/kg/injection, schedule: Q01DX009 (ip), vehicle: Klucel (hydroxypropylcellulose) (HPC)): 1 of 6

ClC1(Cl)C2CCCCCCC21 (centres undefined)
survivor count [6]: 0 of 3

C[C@]12CC[C@H](OC3OC(CO)C(O)C(O)C3O)C[C@H]1CC[C@@H]1[C@@H]2CC[C@]2(C)[C@@H](C3=CCOC3=O)CC[C@]12O (some centres undefined)
survivor count (dose: 4.0 mg/kg/injection, schedule: Q01DX009 (ip), vehicle: saline): 6 of 6

CCN(CC)CCOCCO
survivor count (dose: 400.0 mg/kg/injection, schedule: Q01DX009 (ip), vehicle: saline): 3 of 6

Nc1cccc2c1C(=O)C=CC2=O
survivor count [1]: 0 of 6 | survivor count [8]: 0 of 6 | survivor count [2]: 0 of 6

[Cl][Pt+2][Cl].[NH-]c1ccc(F)cc1F.[NH-]c1ccc(F)cc1F
T/C (dose: 50.0 mg/kg/injection, schedule: Q04DX003 (ip), vehicle: distilled water + Tween-80): 128 % of control | survivor count (dose: 200.0 mg/kg/injection, schedule: Q04DX003 (ip), vehicle: distilled water + Tween-80): 0 of 6 and 1 of 6

Cc1csc2nc(-c3ccccc3)[nH]c(=S)c12
survivor count [8]: 6 of 6

Cc1cn(C2CC3OP(O)(=S)OCC3O2)c(=O)[nH]c1=O (centres undefined)
survivor count (dose: 140.0 mg/kg/injection, schedule: Q01DX005 (ip), vehicle: water): 0 of 6

CCn1c(=S)[nH]c(=O)c2n[nH]nc21
survivor count (dose: 400.0 mg/kg/injection, schedule: Q01DX009 (ip), vehicle: acetone): 3 of 6

O=C(O)C(C(=O)O)C1Cc2cccc3cccc1c23 (centres undefined)
survivor count [5]: 2 of 6 | survivor count [9]: 0 of 6

O=C(O)C1=CC=C(c2ccccc2)C(=O)C1
survivor count [3]: 6 of 6 | survivor count [7]: 5 of 6 | survivor count [9]: 1 of 6

O=c1[nH]c2ccccc2nc1Cl
survivor count (dose: 100.0 mg/kg/injection, schedule: Q04DX002 (ip), vehicle: saline with Tween-80): 3 of 3

Cc1c(C#N)sc2ccccc12
survivor count (dose: 200.0 mg/kg/injection, schedule: Q01DX009 (ip), vehicle: other): 0 of 6 | survivor count (dose: 400.0 mg/kg/injection, schedule: Q04DX003 (ip), vehicle: other): 5 of 6

Cc1ccc(NC(=O)CCl)cc1C
survivor count (dose: 400.0 mg/kg/injection, schedule: Q01DX009 (ip), vehicle: saline with Tween-80): 3 of 6

CC1(C)N=C(N)N=C(N)N1c1ccc(CCCCc2ccc(Cl)c(S(=O)(=O)F)c2)c(Cl)c1
survivor count (dose: 200.0 mg/kg/injection, schedule: Q04DX003 (ip), vehicle: saline sonified): 0 of 6 | survivor count (dose: 400.0 mg/kg/injection, schedule: Q04DX003 (ip), vehicle: saline sonified): 0 of 6

O=C(Nc1ccc(Cl)c(Cl)c1)Sc1ccc(Cl)cc1
survivor count [8]: 1 of 6 | survivor count [2]: 0 of 6

Nc1ncnc2c1nnn2C1OC(CO)C(O)C1O (centres undefined)
T/C (dose: 42.0 mg/kg/injection, schedule: Q01DX009 (ip), vehicle: Klucel (hydroxypropylcellulose) (HPC)): 126 % of control

CCc1c(O)c2c(c(O)c1C(C)=O)C(=O)c1c(cc(O)c(C(=O)O)c1C(=O)O)C2=O
survivor count (dose: 200.0 mg/kg/injection, schedule: Q01DX009 (ip), vehicle: saline): 0 of 6

CCOC(=O)C(C)C(=O)O (centres undefined)
survivor count (dose: 400.0 mg/kg/injection, schedule: Q04DX003 (ip), vehicle: saline): 3 of 6

CN(C)C=NC1=NN(C)c2ncnc3c2c1cn3C1OC(CO)C(O)C1O (centres undefined)
T/C (dose: 600.0 mg/kg/injection, schedule: Q01DX009 (ip), vehicle: other): 126 % of control | T/C (dose: 900.0 mg/kg/injection, schedule: Q01DX009 (ip), vehicle: other): 126 % of control

COC1CCCC[CH]1[Hg][Br] (centres undefined)
survivor count (dose: 6.25 mg/kg/injection, schedule: Q01DX009 (ip), vehicle: saline with Tween-80): 1 of 3 | survivor count (dose: 12.5 mg/kg/injection, schedule: Q01DX009 (ip), vehicle: saline with Tween-80): 1 of 3

CC(=O)OC1(C)CC(C)C(=O)C(C(O)CC2CC(=O)NC(=O)C2)C1 (centres undefined)
T/C (dose: 0.13 mg/kg/injection, schedule: Q01DX009 (ip), vehicle: saline): 126 % of control [5 of 6 alive] | T/C (dose: 0.25 mg/kg/injection, schedule: Q01DX009 (ip), vehicle: saline): 129 and 131 % of control | T/C (dose: 0.5 mg/kg/injection, schedule: Q01DX009 (ip), vehicle: saline): 131 and 133 % of control [5 of 6 alive]

C[n+]1cccc(NC(=O)c2ccc(NC(=O)c3ccc(C(=O)Nc4ccc(NC(=N)N)cc4)cc3)cc2)c1
T/C (dose: 5.0 mg/kg/injection, schedule: Q01DX009 (ip), vehicle: saline): 143 and 149 % of control

CCOC(CNCc1cccc(OC)c1)OCC
survivor count (dose: 400.0 mg/kg/injection, schedule: Q01DX001 (ip), vehicle: saline): 0 of 6
